PubChem BioAssay AID1508588, Peter MacCallum Cancer Centre – 2020
Shown is a random part of about 18,000 reagents. 790 of them (4.4%) count as active. 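Calls rest on a combination of fold-change classes in drug and vehicle arms, not all shown here.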

- Assay: 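Genome-wide search for knock-downs that heighten vemurafenib action in melanoma cells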 (primary screen)
- Cell system: human WM266.4 melanoma cells (BRAF V600 mutant)
- Knock-down reagent: siRNA pool against human genes, 40 nM
- Time to read-out: 96 h from transfection to read-out
- Treatment: vemurafenib 300 nM (about IC25), added 48 h after transfection, for 48 h; comparison arm got DMSO vehicle only
- Detection: 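Ratios to non-targeting siRNA for cell gain, counted as DAPI nuclei after minus before drug and averaged over two replicates, and for absorbance-read medium lactate per cell; both binned into fold-change classes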
- Direction: cell gain with vemurafenib: higher = more cell gain than with non-targeting siRNA; lactate per cell with vemurafenib: higher = more lactate made per cell
- Active means: 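Enhancement is called by pairing each knock-down's vehicle-arm and drug-arm fold-change classes for viability or glycolysis; which class combinations qualify is not given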
- Calls: active = enhances vemurafenib effect; inactive = no enhancement seen

| gene knocked down | cell gain with vemurafenib | lactate per cell with vemurafenib | Outcome |
| --- | --- | --- | --- |
| PRPF4 | 0.12 | 0.7 | inactive |
| TEF | 0.51 | 0.9 | inactive |
| IL37 | 0.83 | 1.13 | inactive |
| VSTM1 | 0.21 | 0.84 | inactive |
| MIR1-1HG | 0.72 | 0.55 | inactive |
| POU4F2 | 1.05 | 0.89 | inactive |
| RANBP1 | 0.74 | 0.8 | inactive |
| PRSS27 | 0.58 | 0.98 | inactive |
| CPTP | 0.69 | 0.7 | inactive |
| KRABD4 | 0.58 | 1.03 | inactive |
| COL15A1 | 0.65 | 0.4 | inactive |
| FAM9A | 0.37 | 1.17 | inactive |
| EIF3K | 0.17 | 1.07 | inactive |
| MRPL17 | 0.69 | 0.5 | inactive |
| ENTHD1 | 0.27 | 1.71 | inactive |
| CHAD | 0.51 | 1.88 | inactive |
| FASN | 0.31 | 0.85 | inactive |
| DMXL2 | 0.89 | 1.25 | inactive |
| SFTPC | 1.23 | 0.43 | inactive |
| PM20D1 | 0.36 | 0.71 | inactive |
| IL17RA | 0.29 | 1.17 | inactive |
| HOXD4 | 1.17 | 0.98 | inactive |
| KLHL30 | 0.63 | 0.97 | inactive |
| SMOC1 | 1.37 | 0.53 | inactive |
| C19orf12 | 0.38 | 1.25 | inactive |
| TMEM91 | 0.13 | 1.6 | inactive |
| SATB2 | 0.41 | 1.34 | inactive |
| SANBR | 0.92 | 0.79 | inactive |
| CLN6 | 0.51 | 0.84 | inactive |
| CD248 | 0.86 | 0.94 | inactive |
| GRB7 | 0.71 | 0.73 | inactive |
| TGFBR3 | 0.46 | 0.96 | inactive |
| BSN | 0.96 | 0.94 | inactive |
| ACKR2 | 0.61 | 1.26 | inactive |

A few values from the entries so far.
TMEM91, lactate per cell with vemurafenib = 1.6
SANBR, lactate per cell with vemurafenib = 0.79
Under “lactate per cell with vemurafenib”, TEF reads 0.9
For “Outcome”, SFTPC is entered as inactive
